Consider one substance from article PMC7315810.

The chains behind the UniProt entries cited, without tags or fusion partners.
UniProt Q8CHK4: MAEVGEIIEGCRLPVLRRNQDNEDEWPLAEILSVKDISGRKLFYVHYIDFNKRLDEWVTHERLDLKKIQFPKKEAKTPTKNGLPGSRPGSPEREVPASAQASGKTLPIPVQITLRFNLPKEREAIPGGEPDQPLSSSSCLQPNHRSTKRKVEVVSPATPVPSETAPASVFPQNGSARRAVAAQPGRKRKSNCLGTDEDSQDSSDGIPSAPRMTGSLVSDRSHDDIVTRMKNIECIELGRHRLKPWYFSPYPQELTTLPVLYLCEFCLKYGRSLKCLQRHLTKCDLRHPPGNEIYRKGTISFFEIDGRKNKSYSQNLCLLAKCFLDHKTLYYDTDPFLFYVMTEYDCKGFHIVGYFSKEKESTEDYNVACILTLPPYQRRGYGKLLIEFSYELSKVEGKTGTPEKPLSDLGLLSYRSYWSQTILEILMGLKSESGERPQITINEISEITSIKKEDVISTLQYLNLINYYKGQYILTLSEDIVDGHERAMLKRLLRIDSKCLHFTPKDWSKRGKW

Assay [1] has as its target T1, MRTF-A (myocardin-related transcription factor A), endogenous in macrophages (mouse (endogenous in RAW264 and BMDMs)) (UniProt Q8K4J6).
T1 sequence: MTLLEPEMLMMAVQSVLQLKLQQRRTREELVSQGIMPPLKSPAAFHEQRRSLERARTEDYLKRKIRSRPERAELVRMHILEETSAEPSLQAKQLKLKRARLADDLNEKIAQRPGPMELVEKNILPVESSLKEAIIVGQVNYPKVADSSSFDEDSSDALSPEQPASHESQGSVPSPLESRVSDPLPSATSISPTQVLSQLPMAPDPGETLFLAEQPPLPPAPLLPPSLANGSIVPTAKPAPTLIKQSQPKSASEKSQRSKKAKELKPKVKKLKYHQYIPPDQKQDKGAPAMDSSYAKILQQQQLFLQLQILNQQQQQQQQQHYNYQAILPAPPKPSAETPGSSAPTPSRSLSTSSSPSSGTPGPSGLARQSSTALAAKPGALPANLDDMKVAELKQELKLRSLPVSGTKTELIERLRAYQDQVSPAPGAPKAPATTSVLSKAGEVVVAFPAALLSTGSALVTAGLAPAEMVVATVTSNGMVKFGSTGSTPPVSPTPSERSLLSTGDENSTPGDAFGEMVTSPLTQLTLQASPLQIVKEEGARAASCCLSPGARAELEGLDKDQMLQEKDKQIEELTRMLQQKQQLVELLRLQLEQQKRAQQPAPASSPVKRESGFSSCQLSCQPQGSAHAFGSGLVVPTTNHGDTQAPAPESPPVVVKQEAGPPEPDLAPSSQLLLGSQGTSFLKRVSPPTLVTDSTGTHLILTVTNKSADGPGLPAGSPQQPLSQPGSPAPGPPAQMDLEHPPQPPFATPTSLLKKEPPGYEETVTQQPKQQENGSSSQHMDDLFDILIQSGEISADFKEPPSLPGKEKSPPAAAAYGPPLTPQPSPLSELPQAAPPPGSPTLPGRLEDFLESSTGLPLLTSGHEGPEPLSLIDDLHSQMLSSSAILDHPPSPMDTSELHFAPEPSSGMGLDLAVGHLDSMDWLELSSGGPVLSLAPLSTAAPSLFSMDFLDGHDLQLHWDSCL
Nature of the assay: Re-ChIP; RAW264 cells or primary BMDMs exposed to hypoxia-reoxygenation; Re-ChIP with indicated antibodies; iNOS promoter (GAPDH promoter as control).

Assay [2] deals with T1, MRTF-A (myocardin-related transcription factor A), endogenous in macrophages (mouse (endogenous in RAW264 and BMDMs)). Nature of the assay: co-IP; whole cell lysates from RAW cells (RIPA buffer: 50 mM Tris pH 7.4, 150 mM NaCl, 1% Triton X-100) immunoprecipitated with anti-MRTF-A or IgG; Protein A/G-plus agarose; Western blot.

Results are given in words; binding and its absence hold for the method and conditions named. For some assays here: Binding seen in cells or lysates may run through a third protein. Some entries that bind do so weakly or less than the wild type.

On to “TIP60, endogenous in macrophages (from UniProt Q8CHK4 1-513) (enzyme)”, for which the binding entry in assay [1] and in assay [2] was “binds” each time.
